Consider 1 substance from patent US6150325A (A. Menarini Industrie Farmaceutiche Riunite S.r.l., priority 1995, dated 2000).

Series [1] can be described thus: general procedure: Fmoc solid-phase peptide synthesis; 2-chlorotrityl resin; HOBt/DCC; OPfp ester with HOBt for the glycosylated residue; PyBOP/DIEA for cycl. Conditions: whole synthesis.
Series [2] can be described thus: general procedure: Fmoc solid-phase peptide synthesis; 2-chlor trityl resin (1.6 mmol/g, Novabiochem), Fmoc-Leu substitution 0.364 meq/g; HOBt/DCC; OPfp ester with HOBt for the glycosylated residue; PyBOP/DIEA for cycl.

Regarding “cyclo([Asn(β-D-Glc)-Asp-Trp-Phe-Dap-Leu]cyclo(2β-5β))”, the crude mass in series [1] was determined as 405 mg. Also, in series [2] (late stage modification step), the step yield was determined as 60%. Besides, in series [2] (late stage modification step, HPLC), the “purity (crude or final not stated)” value worked out at 98%. The “crude HPLC purity” value in series [2] (whole synthesis, HPLC, scale of the general procedure 1 g of resin) is 70%. In series [2] (whole synthesis, scale of the general procedure 1 g of resin), this substance returned a crude yield of 90%.
